{"sequences": {"note": "Amino acid sequences for entries named in this document (tags omitted). Chains listed by the source or under a name are the forms on record and can include a tag or linker. Residues count along the entry.", "UniProt Q96LA8, 2-375 with tags or gaps": "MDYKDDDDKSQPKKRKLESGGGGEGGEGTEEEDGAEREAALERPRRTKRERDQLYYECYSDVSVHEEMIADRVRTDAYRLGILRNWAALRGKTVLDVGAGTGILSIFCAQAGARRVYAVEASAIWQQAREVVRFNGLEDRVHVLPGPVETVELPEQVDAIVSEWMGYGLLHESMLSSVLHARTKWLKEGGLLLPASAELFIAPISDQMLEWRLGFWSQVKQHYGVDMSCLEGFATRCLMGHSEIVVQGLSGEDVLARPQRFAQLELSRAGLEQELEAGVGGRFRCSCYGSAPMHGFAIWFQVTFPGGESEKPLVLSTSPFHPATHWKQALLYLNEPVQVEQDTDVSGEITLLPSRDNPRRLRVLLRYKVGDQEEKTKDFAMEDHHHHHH"}, "source": "patent US20170291905A1", "about": "“ARGININE METHYLTRANSFERASE INHIBITORS AND USES THEREOF” (Epizyme, Inc., priority 2014, published 2017)", "molecular_target": "full-length human PRMT6 (Flag- and His-tagged) (Homo sapiens, UniProt Q96LA8)", "experiment": "PRMT6 biochemical assay (3H-SAM Flashplate, histone H4 36-50 K44me1 peptide)", "conditions": "read-out: PRMT6 IC50; 1 nM PRMT6, 30 min preincubation, 75 nM peptide", "text": "S-adenosylmethionine (SAM), S-adenosylhomocysteine (SAH), bicine, Tween20, dimethylsulfoxide (DMSO), bovine skin gelatin (BSG), sodium butyrate and Tris(2-carboxyethyl)phosphine hydrochloride solution (TCEP) were purchased from Sigma-Aldrich at the highest level of purity possible. ^3H-SAM was purchase from American Radiolabeled Chemicals with a specific activity of 80 Ci/mmol. 384-well streptavidin Flashplates were purchased from PerkinElmer.\nPeptide representative of human histone H4 residues 36-50 was synthesized with an N-terminal linker-affinity tag motif and a C-terminal amide cap by 21st Century Biochemicals. The peptide was purified by high-performance liquid chromatography (HPLC) to greater than 95% purity and confirmed by liquid chromatography mass spectrometry (LC-MS). The sequence was Biot-Ahx-RLARRGGVKRISGLI-amide and contained a monomethylated lysine at position 44 (SEQ ID NO.:5).\nFull-length human PRMT6 (NM_018137.2) transcript clone was amplified from an HEK 293 cDNA library, incorporating a flanking 5′ sequence encoding a FLAG tag (MDYKDDDDK) (SEQ ID NO.:6) fused directly to Ser 2 of PRMT6 and a 3′ sequence encoding a hexa His sequence (HHHHHH) (SEQ ID NO.: 17) fused directly to Asp 375. The amplified gene was subcloned into pFastBacMam (Viva Biotech).\nRecombinant baculovirus were generated according to Bac-to-Bac kit instructions (Life Technologies). […]", "note": "Structures were worked out from names or drawings and are uncertain."}
{"molecule": "CNCCN(C)Cc1ncsc1[C@H]1CC[C@@]2(CC1)CC(C)(C)CO2", "note": "[compound 83]", "values": [{"measurement": "IC50", "result": 28.4, "unit": "nM"}]}
